The values below come from PMC12824153.

Protein sequences, listed by entry. Tags and fused reporters are not part of them.
UniProt Q8NEV1: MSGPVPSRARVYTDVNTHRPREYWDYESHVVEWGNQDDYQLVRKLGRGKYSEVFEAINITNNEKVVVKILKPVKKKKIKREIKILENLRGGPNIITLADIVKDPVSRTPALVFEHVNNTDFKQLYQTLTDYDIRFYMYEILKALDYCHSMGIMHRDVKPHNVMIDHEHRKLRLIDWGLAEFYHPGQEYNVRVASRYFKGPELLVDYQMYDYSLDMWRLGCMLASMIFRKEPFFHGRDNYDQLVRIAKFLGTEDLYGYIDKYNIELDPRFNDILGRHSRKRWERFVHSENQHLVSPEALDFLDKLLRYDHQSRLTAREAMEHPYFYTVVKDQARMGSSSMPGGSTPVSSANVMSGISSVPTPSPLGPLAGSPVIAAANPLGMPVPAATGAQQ

No constants are given. Whether binding was seen depends on the method and setting. In cells and extracts the contact can be indirect. Some binding calls cover weakened binding; strength is not graded here.

In the experiment the target is T1, SFB-IKKβ (kappa-B kinase subunit beta) (UniProt O14920).
T1 sequence: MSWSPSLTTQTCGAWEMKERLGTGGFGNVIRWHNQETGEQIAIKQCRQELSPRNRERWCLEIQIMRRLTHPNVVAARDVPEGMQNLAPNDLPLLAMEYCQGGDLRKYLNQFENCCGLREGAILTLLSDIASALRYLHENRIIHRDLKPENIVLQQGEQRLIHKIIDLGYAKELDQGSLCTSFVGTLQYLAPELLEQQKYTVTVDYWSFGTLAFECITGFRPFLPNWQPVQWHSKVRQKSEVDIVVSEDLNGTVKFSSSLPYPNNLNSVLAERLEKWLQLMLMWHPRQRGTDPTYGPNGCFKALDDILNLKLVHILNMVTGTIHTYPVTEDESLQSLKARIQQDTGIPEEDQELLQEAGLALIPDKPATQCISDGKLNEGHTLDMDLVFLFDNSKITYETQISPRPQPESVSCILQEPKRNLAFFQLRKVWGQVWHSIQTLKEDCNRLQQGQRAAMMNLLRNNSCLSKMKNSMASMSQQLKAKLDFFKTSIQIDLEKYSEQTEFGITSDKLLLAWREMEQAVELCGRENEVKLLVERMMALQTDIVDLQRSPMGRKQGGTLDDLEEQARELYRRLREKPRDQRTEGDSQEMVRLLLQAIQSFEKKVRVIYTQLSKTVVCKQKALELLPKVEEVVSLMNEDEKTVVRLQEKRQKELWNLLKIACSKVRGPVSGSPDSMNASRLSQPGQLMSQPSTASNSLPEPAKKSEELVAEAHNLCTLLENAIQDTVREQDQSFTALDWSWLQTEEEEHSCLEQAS
Put plainly: co-IP; A549 cells co-expressing HA-CSK23 and SFB-IKKβ under compression; mild co-IP buffer (50 mM Tris-HCl pH 7.5, 1% Triton X-100, 0.01% SDS, 150 mM NaCl, 1 mM DTT, 0.5 mM EDTA); Flag-tagged proteins precipitated with anti-Flag M2 agarose; cells also treated with W7 (interaction attenuated), FK506 (partially abrogated) or MDL-28170 (no significant effect).

On to “HA-CSK23 (from UniProt Q8NEV1 1-391) (enzyme)”, for which the binding result is “binds”.
